Results published in publication PMC7782846.
Residue numbers refer to the chain shown, from its start. These are yes or no findings as the source states them, for the method shown. Binding seen in cells or lysates may run through a third protein. Some results given as binding are weak or reduced against the parent protein; the word gives no strength. Where a sequence is shown, tags or fusion partners need not be part of it.

Chains of the proteins cited; added tags and fusions are not shown.
UniProt Q64310: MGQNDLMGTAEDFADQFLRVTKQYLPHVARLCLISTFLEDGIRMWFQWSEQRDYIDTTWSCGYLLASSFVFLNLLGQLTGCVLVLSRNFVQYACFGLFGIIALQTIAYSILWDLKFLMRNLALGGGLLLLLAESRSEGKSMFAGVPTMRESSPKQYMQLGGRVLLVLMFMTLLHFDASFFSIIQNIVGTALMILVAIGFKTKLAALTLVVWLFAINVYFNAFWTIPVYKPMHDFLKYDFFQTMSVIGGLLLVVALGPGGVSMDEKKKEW

Legend:
[1] = molecular target: T1, α-COP-FLAG (E241K), mouse (mouse) (UniProt Q8CIE6); assay: co-IP; α-COP-FLAG immunoprecipitated with anti-FLAG from lysates of transfected HEK293T cells (1% CHAPS, 150 mM NaCl, pH 7.2), western blot
T1 sequence: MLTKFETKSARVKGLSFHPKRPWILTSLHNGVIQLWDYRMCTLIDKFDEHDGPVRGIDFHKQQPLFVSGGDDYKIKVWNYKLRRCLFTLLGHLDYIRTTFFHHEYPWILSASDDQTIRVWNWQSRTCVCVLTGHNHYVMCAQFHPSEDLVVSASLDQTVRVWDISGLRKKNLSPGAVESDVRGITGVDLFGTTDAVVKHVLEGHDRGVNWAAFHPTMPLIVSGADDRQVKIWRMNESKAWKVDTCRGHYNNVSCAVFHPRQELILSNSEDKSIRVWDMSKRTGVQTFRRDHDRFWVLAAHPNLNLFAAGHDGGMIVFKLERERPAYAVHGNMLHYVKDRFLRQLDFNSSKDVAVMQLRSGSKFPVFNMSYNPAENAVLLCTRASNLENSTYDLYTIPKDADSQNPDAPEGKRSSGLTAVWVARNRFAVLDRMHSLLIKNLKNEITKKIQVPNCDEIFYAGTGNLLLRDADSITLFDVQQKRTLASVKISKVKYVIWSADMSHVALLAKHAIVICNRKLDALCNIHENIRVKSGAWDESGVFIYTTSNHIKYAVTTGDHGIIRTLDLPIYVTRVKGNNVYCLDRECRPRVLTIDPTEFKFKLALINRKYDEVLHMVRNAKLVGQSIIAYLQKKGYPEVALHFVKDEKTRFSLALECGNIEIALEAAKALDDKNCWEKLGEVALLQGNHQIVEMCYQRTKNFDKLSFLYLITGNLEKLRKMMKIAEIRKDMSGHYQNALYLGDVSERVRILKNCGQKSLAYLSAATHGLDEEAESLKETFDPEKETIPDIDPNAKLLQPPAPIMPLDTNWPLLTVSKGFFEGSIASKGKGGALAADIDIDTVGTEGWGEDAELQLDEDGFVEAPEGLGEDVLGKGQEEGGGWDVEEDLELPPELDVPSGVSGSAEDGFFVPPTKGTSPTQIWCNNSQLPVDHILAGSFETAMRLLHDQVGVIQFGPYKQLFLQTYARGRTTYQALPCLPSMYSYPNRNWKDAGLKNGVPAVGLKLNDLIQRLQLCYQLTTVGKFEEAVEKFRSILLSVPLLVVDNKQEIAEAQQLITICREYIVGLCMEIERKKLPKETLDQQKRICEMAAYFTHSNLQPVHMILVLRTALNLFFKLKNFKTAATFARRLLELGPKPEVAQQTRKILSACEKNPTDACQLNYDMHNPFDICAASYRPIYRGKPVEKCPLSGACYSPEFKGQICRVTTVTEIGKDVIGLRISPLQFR

[2] = molecular target: T2, α-COP-FLAG (WT), mouse (mouse) (UniProt Q8CIE6); assay: as above
T2 sequence: T1 sequence with K241E

EGFP-mouse STING (mouse) = molecular target: T3, EGFP-mouse STING (mouse) (UniProt Q3TBT3); assay: co-IP; EGFP-STING immunoprecipitated with anti-GFP nanobody beads from lysates of Sting-/- MEFs stably expressing EGFP-STING and HA-Surf4; cells also stimulated with cGAMP or DMXAA for 1 h; western blot
T3 sequence: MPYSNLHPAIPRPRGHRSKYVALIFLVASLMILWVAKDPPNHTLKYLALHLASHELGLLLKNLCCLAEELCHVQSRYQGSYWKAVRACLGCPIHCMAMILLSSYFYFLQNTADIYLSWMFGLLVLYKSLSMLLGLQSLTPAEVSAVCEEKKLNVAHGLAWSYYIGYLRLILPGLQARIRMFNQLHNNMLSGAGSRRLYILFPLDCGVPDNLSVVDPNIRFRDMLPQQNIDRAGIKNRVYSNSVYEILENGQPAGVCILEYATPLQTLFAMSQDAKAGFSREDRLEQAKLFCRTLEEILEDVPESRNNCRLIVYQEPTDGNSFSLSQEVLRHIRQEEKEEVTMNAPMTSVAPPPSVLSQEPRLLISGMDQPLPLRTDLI

Measured: binding

HA-Surf4, mouse (from UniProt Q64310 1-269)
binds: all assays above
